In all, about 2,100 compounds went through this assay and about 180 (8.6%) showed an effect of 50% or more. This is one part of the list.
tested on: MOLM1 and UCSD/AML1 (averaged); test: cell viability relative to DMSO control (POC); higher = less growth inhibition; settings: 1 µM; 72 h
Protocol: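 Primary viability screen in the 3q26 EVI1-high AML cell lines MOLM1 and UCSD/AML1 (1.5e3 cells/well, 384-well), compounds at 1 uM for 72 h. ATP CellTiter-Glo read-out given as percent of viable cells over DMSO control (POC), averaged over duplicates. DMSO was the negative control and 5 uM etoposide the positive control. This mapping covers the MicroSource Spectrum and Selleck anticancer libraries (drug names).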

| SMILES | cell viability [%] |
| --- | --- |
| COc1c(C)c2c(c(O)c1C/C=C(\C)CCC(=O)OCCN1CCOCC1)C(=O)OC2 [Mycophenolate mofetil (CellCept)] | 53 |
| CC1(C)[C@@H](O)CC[C@]2(C)[C@H]3C(=O)C=C4[C@@H]5C[C@@](C)(C(=O)O)CC[C@]5(C)CC[C@@]4(C)[C@]3(C)CC[C@@H]12 | 95.5 |
| C[C@]12CCC(=O)C=C1C=C[C@@H]1[C@@H]2CC[C@@]2(C)[C@H]1CC[C@@]21CCC(=O)O1 | 83.2 |
| C[C@H]1COC2(CCN(c3nc(=O)c4cc(C(F)(F)F)cc([N+](=O)[O-])c4s3)CC2)O1 (racemic) [BTZ043 racemate] | 83.5 |
| CCNC(=O)c1noc(-c2cc(C(C)C)c(O)cc2O)c1-c1ccc(CN2CCOCC2)cc1 [Luminespib (AUY-922, NVP-AUY922)] | 2.13 |
| CNCc1ccc(-c2[nH]c3cc(F)cc4c3c2CCNC4=O)cc1 | 89.1 |
| Cc1c(NC(C)C)c(=O)n(-c2ccccc2)n1C | 96.4 |
| O=c1cc(-c2ccc(O)cc2)oc2cc(O[C@@H]3O[C@H](CO)[C@@H](O)[C@H](O)[C@H]3O)cc(O)c12 | 104 |
| Cc1cnc(-c2cnc(NCCNc3ccc(C#N)cn3)nc2-c2ccc(Cl)cc2Cl)[nH]1 | 133 |
| Cc1c(NC(=O)OC[C@@H]2COCCN2)cn2ncnc(Nc3ccc4c(cnn4Cc4cccc(F)c4)c3)c12 | 119 |
| CC(C[N+](C)(C)C)OC(N)=O (stereo unspecified) | 98.3 |
| CC(C)c1cccc(=O)c(O)c1 | 93.6 |
| CCCCCCCCCCOc1cc2c(O)c(C(=O)OCC)cnc2cc1OCC | 98.9 |
| COc1ccc([C@@H]2Sc3ccccc3N(CCN(C)C)C(=O)[C@@H]2OC(C)=O)cc1 | 95.8 |
| Cc1cn([C@H]2C[C@H](N=[N+]=[N-])[C@@H](CO)O2)c(=O)[nH]c1=O | 102 |
| O=C1N=C(O)NC1(c1ccccc1)c1ccccc1 | 110 |
| COc1cc(NS(=O)(=O)c2ccc(N)cc2)nc(OC)n1 | 98.3 |
| CC[N+](CC)(CC(=O)Nc1c(C)cccc1C)Cc1ccccc1 | 87.4 |
| CC1(C)O[C@@H]2[C@@H](CO[C@@]3(COS(N)(=O)=O)OC(C)(C)O[C@@H]23)O1 | 88.2 |

Given comma-delimited: part of the list above
SMILES,cell viability [%]
O=c1cc(-c2ccc(O)cc2)oc2cc(O[C@@H]3O[C@H](CO)[C@@H](O)[C@H](O)[C@H]3O)cc(O)c12,104
Cc1c(NC(=O)OC[C@@H]2COCCN2)cn2ncnc(Nc3ccc4c(cnn4Cc4cccc(F)c4)c3)c12,119
CCCCCCCCCCOc1cc2c(O)c(C(=O)OCC)cnc2cc1OCC,98.9
COc1ccc([C@@H]2Sc3ccccc3N(CCN(C)C)C(=O)[C@@H]2OC(C)=O)cc1,95.8
COc1cc(NS(=O)(=O)c2ccc(N)cc2)nc(OC)n1,98.3

The list goes on.

| SMILES | cell viability [%] |
| --- | --- |
| COc1cc2ccc(=O)oc2cc1O | 94.7 |
| O=C(O)CCCC[C@@H]1CCSS1 | 109 |
| CC(=O)O[C@H]1C[C@@H](O)C(C)(C)[C@@H]2C[C@@H](OC(C)=O)[C@]3(C)[C@H](CC[C@@]4(C)[C@@H](c5ccoc5)OC(=O)[C@H]5O[C@@]534)[C@@]12C | 104 |
| NC(=O)N1c2ccccc2CC(=O)c2ccccc21 | 94.4 |
| Oc1nc(-c2ccc(C(F)(F)F)cc2)nc2c1CSCC2 | 110 |
| CC(C)Cn1cnc2c(N)nc3ccccc3c21 [Imiquimod] | 47.9 |
| CC(=O)OCC(=O)[C@@]1(O)[C@H](OC(C)=O)C[C@H]2[C@@H]3CCC4=CC(=O)C=C[C@]4(C)[C@@]3(F)[C@@H](O)C[C@@]21C | 78.4 |
| O=C1OC(=O)[C@H]2[C@@H]1[C@@H]1CC[C@H]2O1 | 104 |
| C[C@]12CCC3c4ccc(OS(=O)(=O)O)cc4CCC3C1CC[C@H]2O (stereo partly specified) | 98.1 |
| CC(C)NC(=N)NC(=N)Nc1ccc(Cl)cc1 | 97.6 |
| CCCC(=O)O[C@]1(C(=O)CO)CC[C@H]2[C@@H]3CCC4=CC(=O)CC[C@]4(C)[C@H]3[C@@H](O)C[C@@]21C | 83.5 |
| CC1(C)S[C@@H]2[C@H](NC(=O)COc3ccccc3)C(=O)N2[C@H]1C(=O)O | 110 |
| COc1ccc2c3c1O[C@H]1C[C@@H](O)C=C[C@@]31CCN(C)C2 | 104 |
| O=c1[nH]c(=O)n([C@H]2C[C@H](O)[C@@H](CO)O2)cc1C(F)(F)F | 115 |
| Cc1nnc(SCC2=C(C(=O)O)N3C(=O)[C@@H](NC(=O)Cn4cnnn4)[C@H]3SC2)s1 | 102 |
| Cn1cncc1[C@@](N)(c1ccc(Cl)cc1)c1ccc2c(c1)c(-c1cccc(Cl)c1)cc(=O)n2C [Tipifarnib (Zarnestra)] | 36.5 |
| S=c1[nH]cnc2nc[nH]c12 | 96.5 |
| S=c1[nH]cnc2nc[nH]c12 [Mercaptopurine] | 93.6 |
| COc1cc2c(cc1OC)[C@@H]1C(=O)c3ccc4c(c3O[C@@H]1CO2)C=CC(C)(C)O4 | 80 |

| SMILES | cell viability [%] |
| --- | --- |
| CCCCCCCCNC(C)C(O)c1ccc(SC(C)C)cc1 (stereo unspecified) | 98.9 |
| C[C@H]1O[C@@H](O[C@H]2[C@@H](O)C[C@H](O[C@H]3[C@@H](O)C[C@H](O[C@H]4CC[C@@]5(C)[C@H](CC[C@@H]6[C@@H]5CC[C@]5(C)[C@@H](C7=CC(=O)OC7)CC[C@]65O)C4)O[C@@H]3C)O[C@@H]2C)C[C@H](O)[C@@H]1O | 2.44 |
| C=C(C)[C@@H]1CC[C@]2(C)CC[C@]3(C)[C@H](CC[C@@H]4[C@@]5(C)CC[C@H](O)C(C)(C)[C@@H]5CC[C@]43C)[C@@H]12 | 105 |
| O=C(NCCCNc1nc(Nc2cccc(NC(=O)N3CCCC3)c2)ncc1I)c1cccs1 | 47.6 |
| CC1=CC2C(CC1=O)C(C)=CCC2C(C)C (stereo unspecified) | 92.7 |
| NCCCCN | 94.1 |
| S=P(N1CC1)(N1CC1)N1CC1 | 86 |
| CC(C)[C@@H]1CC[C@@H](C)C[C@H]1OC(=O)c1ccccc1 | 109 |
| CC(=O)O[C@H]1CC[C@]2(C)[C@H]3CC=C4[C@@H]5CC(C)(C)CC[C@]5(C(=O)O)CC[C@@]4(C)[C@]3(C)CC[C@H]2C1(C)C | 102 |
| Cc1cc(O)cc(=O)o1 | 112 |
| COC(=O)[C@@H]1OC(=O)C2OC23[C@@]1(C)CCC1[C@]2(C)C(C[C@@H](O)[C@]13C)C(C)(C)[C@H](OC(C)=O)C[C@@H]2OC(C)=O (stereo partly specified) | 111 |
| COc1ccc(C(C)=O)c(O)c1 | 103 |
| COC(=O)/C(=C1/OC(=O)C(c2ccccc2)=C1O)c1ccccc1 | 102 |
| CC(C)[C@H]1CC[C@H](C(=O)N[C@H](Cc2ccccc2)C(=O)O)CC1 | 89.5 |
| COc1c(O)cc2c(c1O)[C@@H]1O[C@H](CO)[C@@H](O)[C@H](O)[C@H]1OC2=O | 101 |
| COc1cc(-c2coc3cc(OCc4ccccc4)c(OC)c(O)c3c2=O)cc(O)c1OC | 95.2 |
| COc1ccccc1OCCNCC(O)COc1cccc2[nH]c3ccccc3c12 (stereo unspecified) | 88.8 |
| COc1cc(N2CCC(N3CCN(C)CC3)CC2)ccc1Nc1ncc(Cl)c(Nc2ccccc2S(=O)(=O)C(C)C)n1 | 30.7 |

— the supplement of paper PMC11150407
